Test results reported in article PMC10837360.
Results are given in words; binding and its absence hold for the method and conditions named. Binding seen in cells or lysates may run through a third protein. A yes stands for co-enrichment or nearness to the bait. Other partners may have been found. Sequences can lack the tags named with a protein.

By UniProt entry, the sequences of proteins in these tests, tags left out.
UniProt Q9Y6M1: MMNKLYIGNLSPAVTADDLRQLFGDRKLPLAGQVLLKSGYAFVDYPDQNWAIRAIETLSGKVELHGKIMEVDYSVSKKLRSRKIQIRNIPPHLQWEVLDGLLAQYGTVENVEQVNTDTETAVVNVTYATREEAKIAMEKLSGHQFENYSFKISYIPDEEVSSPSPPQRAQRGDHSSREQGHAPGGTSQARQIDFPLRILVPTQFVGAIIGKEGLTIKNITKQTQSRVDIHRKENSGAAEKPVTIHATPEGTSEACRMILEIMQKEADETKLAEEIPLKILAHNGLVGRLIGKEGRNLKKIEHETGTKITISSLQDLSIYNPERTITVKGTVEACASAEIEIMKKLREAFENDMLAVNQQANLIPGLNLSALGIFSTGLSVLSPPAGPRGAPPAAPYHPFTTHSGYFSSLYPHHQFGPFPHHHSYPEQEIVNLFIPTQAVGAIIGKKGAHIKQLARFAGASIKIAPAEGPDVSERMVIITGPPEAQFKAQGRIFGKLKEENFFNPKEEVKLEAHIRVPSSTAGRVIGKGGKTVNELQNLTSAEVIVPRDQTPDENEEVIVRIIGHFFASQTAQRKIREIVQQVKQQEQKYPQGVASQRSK
UniProt O00425: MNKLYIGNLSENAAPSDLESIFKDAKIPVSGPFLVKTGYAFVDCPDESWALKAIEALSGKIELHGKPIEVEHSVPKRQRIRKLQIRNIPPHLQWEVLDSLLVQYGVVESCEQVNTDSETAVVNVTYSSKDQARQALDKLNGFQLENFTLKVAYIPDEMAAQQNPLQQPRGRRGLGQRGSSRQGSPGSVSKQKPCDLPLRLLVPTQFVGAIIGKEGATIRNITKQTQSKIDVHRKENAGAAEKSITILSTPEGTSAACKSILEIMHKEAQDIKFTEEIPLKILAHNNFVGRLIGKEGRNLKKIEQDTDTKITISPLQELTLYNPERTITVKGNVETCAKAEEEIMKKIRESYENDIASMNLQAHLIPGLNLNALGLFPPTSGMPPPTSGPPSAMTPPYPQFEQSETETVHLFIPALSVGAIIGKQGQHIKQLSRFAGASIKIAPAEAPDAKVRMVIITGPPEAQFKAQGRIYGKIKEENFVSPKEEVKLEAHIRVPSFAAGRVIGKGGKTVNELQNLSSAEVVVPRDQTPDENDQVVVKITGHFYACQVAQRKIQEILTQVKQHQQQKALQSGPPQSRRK

Target: T1, Flag-SLC27A5 (solute carrier family 27 member 5, 3xFlag-tagged) (human) (UniProt Q9Y2P5)
T1 sequence: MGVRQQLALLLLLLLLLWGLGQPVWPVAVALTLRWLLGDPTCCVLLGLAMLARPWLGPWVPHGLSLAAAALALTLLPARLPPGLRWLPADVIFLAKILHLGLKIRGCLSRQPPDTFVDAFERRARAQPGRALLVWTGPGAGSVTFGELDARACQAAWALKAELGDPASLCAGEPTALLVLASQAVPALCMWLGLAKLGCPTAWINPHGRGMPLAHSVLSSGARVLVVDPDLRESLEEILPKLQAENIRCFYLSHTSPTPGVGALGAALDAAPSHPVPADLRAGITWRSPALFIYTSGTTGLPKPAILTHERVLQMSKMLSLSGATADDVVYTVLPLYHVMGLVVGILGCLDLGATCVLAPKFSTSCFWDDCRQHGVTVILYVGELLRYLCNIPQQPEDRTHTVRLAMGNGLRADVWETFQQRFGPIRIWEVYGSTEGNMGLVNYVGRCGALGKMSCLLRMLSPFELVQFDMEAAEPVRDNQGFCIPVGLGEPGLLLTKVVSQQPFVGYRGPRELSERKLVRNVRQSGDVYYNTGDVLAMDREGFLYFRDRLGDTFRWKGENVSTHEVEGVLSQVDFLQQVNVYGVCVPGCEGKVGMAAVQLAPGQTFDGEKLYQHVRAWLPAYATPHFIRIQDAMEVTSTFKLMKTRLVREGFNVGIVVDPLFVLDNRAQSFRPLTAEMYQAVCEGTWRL
Assay: affinity purification with mass spectrometry; PLC/PRF/5 cells transfected with SLC27A5-TO4-3Flag or TO4-3Flag; ANTI-FLAG M2 affinity gel overnight at 4 °C; Coomassie-stained gel bands analysed by MS

binding | Substance
binds | IGF2BP2 found by IP-MS in PLC/PRF/5 cells (from UniProt Q9Y6M1 1-599)
binds | IGF2BP3 found by IP-MS in PLC/PRF/5 cells (from UniProt O00425 1-579)
